Measurements taken from US20230044649A1, “METHODS TO ENHANCE BIOAVAVAILABILITY OF ORGANIC SMALL MOLECULES AND DEPOSITED FILMS MADE THEREFROM” (THE REGENTS OF THE UNIVERSITY OF MICHIGAN, priority 2015, published 2023).
At least one structure is not confirmed: it was looked up by name or label, or the drawing left a doubt.

Legend:
Type in all cases: physicochemical
[1] = Initial dissolution rate of printed film versus loose powder (USP 2 stirring apparatus, UV-VIS)
Source text: When comparing dissolution from powder form and film form for the same material and same crystal structure, D, V, Cs are constant and initial dissolution rate will be proportional to A/δ. δ and A are constant for dissolution from film since area of the film is not changing during dissolution. In a powder, δ and A are changing since particles size and shape is changing. […] Therefore only the initial rate can be compared between powder and a film.
In order to compare film form versus original powder dissolution behavior, loose powders with same weight as films are introduced into 10 ml solution without any prior treatment and stirred using stirring rod with same shape and diameter as one that is used for films. All experiments are performed at temperature […].
(§1) For dissolution rate experiments a USP 2 stirring apparatus with stirring speed of 100 rpm is used. Concentration is monitored using UV-VIS spectrometer equipped with dipping probe. As an example glass slides substrates with deposited 9 mm diameter drug films are used. Films weights are in the range of 5-80 μg. First, intrinsic dissolution rate (IDR) of films is studied and compared it to dissolution of compressed powder in form of 1.57 mm diameter pellets. IDR is defined as Equation (4): […]

[2] = Intrinsic dissolution rate (IDR) of films compared with compressed powder pellets; conditions: comparable to compressed pellets, about 10 ml, 20±1° C., solvent per compound as
Procedure: as §1
In this case (dm/dt)max is maximum slope in a dissolution curve evaluated at the start of dissolution process (m—dissolved solute mass). Glass substrates with deposited films are attached to a stirring rod having same diameter as compressed pellets rod (20 mm), assuring that hydrodynamic boundary layer thickness is same for compressed powder and deposited film. Solution volume remains constant in all experiments, about 10 ml, and temperature is 20±1° C.

[3] = Surface area of printed film and of powder

Which results are given for `O=C1OC2(c3ccc(O)cc3Oc3cc(O)ccc32)c2ccccc21` [fluorescein]?
enhancement of initial dissolution rate in film versus loose powder ([1]; deionized water, FIG. 10(a), 19±1° C.): about ten times; initial dissolution rate, printed film relative to powder ([1]; fluorescein in deionized water): 18 times higher; initial dissolution rate ([1]; fluorescein in deionized water, 25 μg of powder): 8.9e^−5 μg ml^−1 sec^−1; initial dissolution rate ([1]; fluorescein in deionized water, printed film): 1.61e^−3 μg ml^−1 sec^−1; intrinsic dissolution rate (IDR) [2]: 3×10^−5±5×10^−6 μg sec^−1 mm^−2; film surface area relative to powder surface area [3]: 17 times higher; powder surface area ([3]; powder (25 μg fluorescein, 30 μg ibuprofen, 30 μg tamoxifen)): 3.6e^−6 m^2; film surface area ([3]; printed film): 6.4e^−5 m^2
